Test results taken from paper PMC11377567.
These are yes or no findings as the source states them, for the method shown. In cells and extracts the contact can be indirect. Some binding calls cover weakened binding; strength is not graded here.

Amino acid sequences for entries named in this document (tags omitted).
UniProt P08050: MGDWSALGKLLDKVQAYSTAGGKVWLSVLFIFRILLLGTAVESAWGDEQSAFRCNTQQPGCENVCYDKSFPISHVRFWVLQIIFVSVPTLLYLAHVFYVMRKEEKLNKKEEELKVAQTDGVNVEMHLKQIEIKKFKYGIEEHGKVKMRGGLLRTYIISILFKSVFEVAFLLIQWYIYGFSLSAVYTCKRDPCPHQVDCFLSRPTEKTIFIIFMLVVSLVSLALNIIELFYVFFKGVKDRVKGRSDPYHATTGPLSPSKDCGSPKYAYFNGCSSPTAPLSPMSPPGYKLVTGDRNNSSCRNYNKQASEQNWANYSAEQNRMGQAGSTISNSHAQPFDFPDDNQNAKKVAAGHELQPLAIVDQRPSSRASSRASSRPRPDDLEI
UniProt P17931: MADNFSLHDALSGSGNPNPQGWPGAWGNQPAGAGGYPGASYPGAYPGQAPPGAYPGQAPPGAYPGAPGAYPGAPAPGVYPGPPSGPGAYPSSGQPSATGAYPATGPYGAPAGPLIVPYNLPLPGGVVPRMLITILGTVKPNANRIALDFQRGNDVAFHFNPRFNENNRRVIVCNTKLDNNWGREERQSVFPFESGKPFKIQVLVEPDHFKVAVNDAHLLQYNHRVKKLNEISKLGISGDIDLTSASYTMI

Molecular target: Connexin43 (rat) (UniProt P08050)
Experiment: co-IP; immunoprecipitation with goat anti-Cx43 (0.5 ug) from 300 ug RIPA lysate of HEK293^Cx43+ cells, overnight at 4 °C, Protein G Sepharose, Western blot; cells untreated or treated with LLOMe (10 or 60 min), for Arp2 also with cytochalasin D in the last 30 min

binding: binds
Substance: mCherry-Galectin3 (from UniProt P17931 1-250)
